Source: PubChem BioAssay AID504764 (Drosophila RNAi Screening Center, 2011)
Aim: 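Genome-wide screen for regulators of Notch-driven gene expression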 (primary screen). System: Drosophila Kc167 cells. Reagent: long dsRNA against Drosophila genes. Duration: about 5 days (4 days dsRNA, then 24 h after transfection). Treatment: transfection of constitutively active membrane-tethered Notch lacking the extracellular domain, read 24 h later. Measurement: 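Light from a Notch-responsive E(spl)m3 luciferase reporter under active Notch, with control-promoter and no-Notch reporter wells to normalise; raw counts from paired wells a and b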. Scale: induced reporter light, run 1, well a and induced reporter light, run 1, well b: higher = more light from the Notch target reporter with active Notch; control promoter light, run 1, well a and control promoter light, run 1, well b: higher = more light from the viral control promoter (cell number, transfection, viability); uninduced reporter light, run 1, well a: higher = more light from the Notch target reporter without active Notch. Rule for the call: 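Wells with low control signal or poorly matching duplicates excluded; duplicates averaged; per source plate, z beyond ±2 for induced/control log2 ratio or beyond ±1.8 for induced/uninduced marks a hit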. Meaning of the calls: active = modifier hit (raised or lowered Notch signal); inactive = not a hit.
In all, the deposit lists about 22,000 reagents; below is a random part of those with a known target gene and a result. In the full data, 403 (1.9%) got an active call. 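Unnormalised raw counts per well; ratio z-scores behind the hit calls and whether each hit raises or lowers signal are not deposited.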 Unmarked entries are inactive. Not given: the amount of reagent.

intr [SID104194320] scored induced reporter light, run 1, well a = 1.61e5; induced reporter light, run 1, well b = 1.57e5; control promoter light, run 1, well a = 1.98e5; control promoter light, run 1, well b = 2.44e5; uninduced reporter light, run 1, well a = 12295.
gry [SID104187820] gave induced reporter light, run 1, well a = 1.65e5; induced reporter light, run 1, well b = 1.48e5; control promoter light, run 1, well a = 1.88e5; control promoter light, run 1, well b = 1.85e5; uninduced reporter light, run 1, well a = 11355.
gry [SID104188310] scored induced reporter light, run 1, well a = 1.07e5; induced reporter light, run 1, well b = 1.02e5; control promoter light, run 1, well a = 99905; control promoter light, run 1, well b = 24190; uninduced reporter light, run 1, well a = 11235.
Alg-2 [SID104187591] scored induced reporter light, run 1, well a = 42880; induced reporter light, run 1, well b = 58820; control promoter light, run 1, well a = 91050; control promoter light, run 1, well b = 85935; uninduced reporter light, run 1, well a = 2185.
CG32248 [SID104187894] gave induced reporter light, run 1, well a = 2.39e5; induced reporter light, run 1, well b = 2.00e5; control promoter light, run 1, well a = 2.59e5; control promoter light, run 1, well b = 2.59e5; uninduced reporter light, run 1, well a = 19320.
For CG3038 [SID104198410], the entry reads induced reporter light, run 1, well a = 1.14e5; induced reporter light, run 1, well b = 1.34e5; control promoter light, run 1, well a = 1.91e5; control promoter light, run 1, well b = 2.09e5; uninduced reporter light, run 1, well a = 9738.
Ugt35D1 [SID104194899] showed induced reporter light, run 1, well a = 1.84e5; induced reporter light, run 1, well b = 1.85e5; control promoter light, run 1, well a = 3.06e5; control promoter light, run 1, well b = 3.82e5; uninduced reporter light, run 1, well a = 13892.
With knock-down of CG17224 [SID104180281], the record shows induced reporter light, run 1, well a = 1.88e5; induced reporter light, run 1, well b = 1.81e5; control promoter light, run 1, well a = 2.72e5; control promoter light, run 1, well b = 2.18e5; uninduced reporter light, run 1, well a = 13460.
Knock-down of CG33169 [SID104191645] gave: induced reporter light, run 1, well a = 1.26e5; induced reporter light, run 1, well b = 1.18e5; control promoter light, run 1, well a = 1.16e5; control promoter light, run 1, well b = 94080; uninduced reporter light, run 1, well a = 5580.
With knock-down of CG4770 [SID104195431], the screen gave induced reporter light, run 1, well a = 2.26e5; induced reporter light, run 1, well b = 1.87e5; control promoter light, run 1, well a = 2.12e5; control promoter light, run 1, well b = 2.41e5; uninduced reporter light, run 1, well a = 18840.
CG5555 [SID104195626] scored induced reporter light, run 1, well a = 2.32e5; induced reporter light, run 1, well b = 2.44e5; control promoter light, run 1, well a = 3.03e5; control promoter light, run 1, well b = 3.51e5; uninduced reporter light, run 1, well a = 17595.
Against tld [SID104196876] the deposit lists induced reporter light, run 1, well a = 1.71e5; induced reporter light, run 1, well b = 1.87e5; control promoter light, run 1, well a = 1.94e5; control promoter light, run 1, well b = 2.44e5; uninduced reporter light, run 1, well a = 18210.
Knock-down of Hap40 [SID104199877] gave: induced reporter light, run 1, well a = 1.82e5; induced reporter light, run 1, well b = 1.41e5; control promoter light, run 1, well a = 2.24e5; control promoter light, run 1, well b = 1.91e5; uninduced reporter light, run 1, well a = 11970.
Depletion of tbc [SID104200332] resulted in: induced reporter light, run 1, well a = 17280; induced reporter light, run 1, well b = 15100; control promoter light, run 1, well a = 15580; control promoter light, run 1, well b = 14265; uninduced reporter light, run 1, well a = 6335.
Silencing of CG11112 [SID104185830] gave: induced reporter light, run 1, well a = 2.18e5; induced reporter light, run 1, well b = 2.31e5; control promoter light, run 1, well a = 2.94e5; control promoter light, run 1, well b = 2.43e5; uninduced reporter light, run 1, well a = 18245.
Against brun [SID104182498] the deposit lists induced reporter light, run 1, well a = 1.53e5; induced reporter light, run 1, well b = 1.81e5; control promoter light, run 1, well a = 1.59e5; control promoter light, run 1, well b = 1.62e5; uninduced reporter light, run 1, well a = 10735.
Against CG2162 [SID104188349], the entry reads induced reporter light, run 1, well a = 46180; induced reporter light, run 1, well b = 54185; control promoter light, run 1, well a = 53855; control promoter light, run 1, well b = 13030; uninduced reporter light, run 1, well a = 9320.
Knock-down of CG18467 [SID104186550] gave: induced reporter light, run 1, well a = 1.02e5; induced reporter light, run 1, well b = 1.02e5; control promoter light, run 1, well a = 1.23e5; control promoter light, run 1, well b = 1.29e5; uninduced reporter light, run 1, well a = 9480.

Reformatted: results already given
gene knocked down,PubChem SID,"induced reporter light, run 1, well a","induced reporter light, run 1, well b","control promoter light, run 1, well a","control promoter light, run 1, well b","uninduced reporter light, run 1, well a"
CG11112,SID104185830,2.18e5,2.31e5,2.94e5,2.43e5,18245
brun,SID104182498,1.53e5,1.81e5,1.59e5,1.62e5,10735
